# In patent US20090118165A1 (CASE WESTERN RESERVE UNIVERSITY, published 2009):
# Amino acid sequences for entries named in this document (tags omitted).
# UniProt Q07812: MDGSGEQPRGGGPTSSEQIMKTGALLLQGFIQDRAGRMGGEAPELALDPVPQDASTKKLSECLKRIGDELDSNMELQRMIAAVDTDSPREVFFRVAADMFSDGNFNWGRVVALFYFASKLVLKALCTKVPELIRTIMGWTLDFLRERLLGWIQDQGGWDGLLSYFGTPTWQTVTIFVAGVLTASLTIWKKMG
# These are yes or no findings as the source states them, for the method shown. In cells and extracts the contact can be indirect. Some binding calls cover weakened binding; strength is not graded here.
# Biological target: Bax (endogenous, in lysate of human Dami megakaryocytic cells) (human) (UniProt Q07812)
# Test: pull-down of biotin-labeled peptide (200 µM) with streptavidin beads from Dami cell lysate, Western blot with anti-Bax antibody
row,binding,Binder
1,binds,"VPTLK (biotin label (position not given)) [biotin-labeled VPTLK (SEQ ID NO:5), mouse version of Bax-inhibiting peptide]"
2,binds,"VPALR (biotin label (position not given)) [biotin-labeled VPALR (SEQ ID NO:6), rat version of Bax-inhibiting peptide]"
3,binds,"VPMLK (biotin label (position not given)) [biotin-labeled VPMLK (SEQ ID NO:2), human version of Bax-inhibiting peptide]"
